# Measurements published in PubChem BioAssay AID504847 (National Center for Advancing Translational Sciences (NCATS), 2011).
# Chains of the proteins cited; added tags and fusions are not shown. Lines headed by an entry give the natural chain unless they say otherwise; changes in a name come on top.
# UniProt P11473: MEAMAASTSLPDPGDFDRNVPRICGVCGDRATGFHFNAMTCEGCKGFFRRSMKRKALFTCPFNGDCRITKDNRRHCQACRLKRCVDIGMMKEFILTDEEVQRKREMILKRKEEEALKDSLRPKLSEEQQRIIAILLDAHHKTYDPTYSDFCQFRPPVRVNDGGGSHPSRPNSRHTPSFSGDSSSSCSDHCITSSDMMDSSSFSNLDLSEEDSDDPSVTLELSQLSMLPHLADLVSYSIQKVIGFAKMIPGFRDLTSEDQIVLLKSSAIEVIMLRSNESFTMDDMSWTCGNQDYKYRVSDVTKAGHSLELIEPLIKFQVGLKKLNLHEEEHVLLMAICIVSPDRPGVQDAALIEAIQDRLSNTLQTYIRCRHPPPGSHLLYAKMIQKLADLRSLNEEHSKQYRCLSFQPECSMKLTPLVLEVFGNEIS
# Where “and” joins values, the source holds several entries; their conditions need not be identical. Equal values may be shown once. In all, about 400,000 compounds went through this assay and about 3,700 (0.93%) were called active. The inconclusive results got no clear call from the source; some entries with a clear call stand among them for comparison. Calls come from the whole dose curve; as a rule, active = well fitted inhibition curve with a large enough effect; inconclusive = small, poorly fitted or top-dose-only effect, or another doubt; inactive = no such curve, though single readings can be large or run the other way. A potency beside an inconclusive call is a rough fit, not a confirmed value.
# Target: Vitamin D3 receptor (Homo sapiens) (UniProt P11473)
# Test: Inhibitors of the vitamin D receptor (VDR): qHTS
# Settings: VDR-SRC2-3 peptide fluorescence polarization, 2 h; max response, negative = inhibition: hits give low values
# Outline: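 Measured by FP: displacement of SRC2-3 coactivator peptide from VDR by library compounds, following a two-hour ambient incubation.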
# % is set by controls: 0 for no effect and ±100 for the full control effect; potency is the fitted concentration of half-maximal effect.
SMILES,Potency,"max response, negative = inhibition"
CCOc1cccc(C(=O)Nc2nccs2)c1,"inconclusive: 0.631 µM [inhibitor, full curve, poor fit]",
Cc1nc2cc(NC(=O)NCCCO)ccc2o1,"inconclusive: 79.4 µM [inhibitor, single point]",
O=C(NCc1ccccc1F)C1CCN(c2nn3cc(-c4ccc(F)cc4)nc3s2)CC1,,inactive: 19.9%
CCOC(=O)c1c(S(=O)(=O)NCC(=O)Nc2cccc(C)c2C)c(C)n(C)c1C,,inactive: -0.914%
COc1ccc(C2NC(=S)NC3=C2CCc2cc(OC)ccc23)cc1 (stereo not given),"inconclusive: 79.4 µM [inhibitor, single point]",
CCOC(=O)c1c(-c2ccc(C)o2)csc1NC(=O)CN1CCOCC1,"inconclusive: 79.4 µM [inhibitor, partial curve]",
Cc1ccc(S(=O)(=O)NN2C(=O)/C(=C/c3cccnc3)SC2=S)cc1,"inconclusive: 50.1 µM [inhibitor, partial curve, poor fit]",
CC(/C=C1\SC(=S)N(NS(=O)(=O)c2ccccc2)C1=O)=C\c1ccccc1,"inconclusive: 79.4 µM [inhibitor, partial curve]",
O=C(NC1CCCCC1)C1CCN(c2nccs2)CC1,"inconclusive: 2.24 µM [inhibitor, partial curve, poor fit]",
O=C(O)c1ccccc1NC(=S)NC(NC(=O)c1ccccc1[N+](=O)[O-])C(Cl)(Cl)Cl (stereo not given),"inconclusive: 89.1 µM [inhibitor, partial curve, poor fit]",
CC1=C(C#N)C(=O)NC(=O)/C1=C\c1ccc(-c2ccc(C)cc2[N+](=O)[O-])o1,"inconclusive: 31.6 µM [inhibitor, single point]",
NS(=O)(=O)c1ccc(-c2ccc(/C=C3\SC(=S)N(C4CCS(=O)(=O)C4)C3=O)o2)cc1 (stereo not given),"inconclusive: 89.1 µM [inhibitor, partial curve]",
COc1ccc(NC(=O)COC(=O)CCCOc2ccc(Cl)cc2Cl)cc1,"inconclusive: 89.1 µM [inhibitor, partial curve, poor fit]",
CCOC(=O)/C(C#N)=C/Nc1ccccc1NS(=O)(=O)c1ccc2c(c1)OCCO2,"inconclusive: 50.1 µM [inhibitor, partial curve, poor fit]",
Clc1cccc(CSc2ccc(-c3ccco3)nn2)c1,"inconclusive: 89.1 µM [inhibitor, single point]",
c1ccc(Nc2ncnc3ccc(-c4ccoc4)cc23)cc1,active: 31.6 µM,
COC1=C/C(=C/c2c(O)c(C#N)c3ccccn23)C=CC1=O,"inconclusive: 56.2 µM [inhibitor, single point]",
COc1cc(CN2CCCC(CO)(Cc3ccccc3)C2)ccc1O (stereo not given),"inconclusive: 44.7 µM [inhibitor, partial curve, poor fit]",
COC1=C(Nc2ccc(O)cc2)C(=O)c2ccccc2C1=O,active: 25.1 µM,
CC(=O)Nc1nc2n(n1)C(c1ccccc1)C=C(c1ccccc1)N2 (stereo not given),,inactive: -2.34%
Oc1ccc2ccccc2c1C=NC12CN3CCN(CN(C3)C1)C2,"inconclusive: 79.4 µM [inhibitor, single point]",
CCc1ccc(Oc2coc3cc(O)ccc3c2=O)cc1,"inconclusive: 89.1 µM [inhibitor, single point]",

# Molecules above that contain a nitro group on carbon:
SMILES,Potency,"max response, negative = inhibition"
O=C(O)c1ccccc1NC(=S)NC(NC(=O)c1ccccc1[N+](=O)[O-])C(Cl)(Cl)Cl (stereo not given),"inconclusive: 89.1 µM [inhibitor, partial curve, poor fit]",
CC1=C(C#N)C(=O)NC(=O)/C1=C\c1ccc(-c2ccc(C)cc2[N+](=O)[O-])o1,"inconclusive: 31.6 µM [inhibitor, single point]",

# (cont.)

SMILES,Potency,"max response, negative = inhibition"
CCc1nnc(NC(=O)C2CC(=O)N(c3ccc4c(c3)OCCO4)C2)s1 (stereo not given),active: 56.2 µM,
CCOC(=O)N1CCN(C(=O)c2ccc3c(c2)NC(=O)/C(=C\c2ccc(OC)c(OC)c2)S3)CC1,"inconclusive: 100 µM [inhibitor, partial curve, poor fit]",
CCN(CC)S(=O)(=O)c1cccc(C(=O)N2CCCCC2)c1,"inconclusive: 89.1 µM [inhibitor, partial curve, poor fit]",
CCc1ccc(N2C(=O)CN(Cc3cc(OC)c(OC)c(OC)c3)C2=S)cc1,"inconclusive: 89.1 µM [inhibitor, single point]",
CCC(Sc1nc(C)cc(=O)[nH]1)C(=O)Nc1ccc(Cl)cn1 (stereo not given),"inconclusive: 89.1 µM [inhibitor, partial curve, poor fit]",
NS(=O)(=O)c1ccc(N2CCN(CCOc3ccc(Cl)cc3)CC2)nc1,"inconclusive: 39.8 µM [inhibitor, partial curve, poor fit]",
CCCCCCCC#Cc1ccccc1/C=N/S(=O)c1ccc(C)cc1 (stereo not given),"inconclusive: 79.4 µM [inhibitor, partial curve]",
O=C(/C=C/c1ccc2c(c1)OCO2)c1ccco1,"inconclusive: 89.1 µM [inhibitor, single point]",
O=C(N/N=C/c1ccc(N2CCOCC2)o1)c1cccc(F)c1,active: 39.8 µM,
Cc1ccsc1/C=C(\C#N)C(=O)NCc1ccco1,,inactive: -8.49%
Cc1sc2ncn(CC(=O)NCCCC(=O)N(C)Cc3ccccc3)c(=O)c2c1C,"inconclusive: 50.1 µM [inhibitor, partial curve]",
Cc1ccc(-c2cc(C(=O)NN=C3CCCC3)c3ccccc3n2)cc1,"inconclusive: 89.1 µM [inhibitor, partial curve, poor fit]",
C[N+]1(CC2COC(c3ccccc3)(C3CCCCC3)O2)CCCCC1 (stereo not given),,inactive: 0.623%
Cc1ccccc1S(=O)(=O)Nc1ncc(C(F)(F)F)cc1Cl,,inactive: 1.36%
COc1ccccc1-c1cc(C(F)(F)F)nc(S(C)(=O)=O)n1,"inconclusive: 56.2 µM [inhibitor, partial curve, poor fit]",
NC(CSC(c1ccccc1)(c1ccccc1)c1cccc2ccccc12)C(=O)O (stereo not given),"inconclusive: 79.4 µM [inhibitor, single point]",
COc1ccc(CNC(=O)c2ccc3c(c2)NC(=O)C(C)S3)cc1 (stereo not given),"inconclusive: 89.1 µM [inhibitor, partial curve, poor fit]",
NC(=O)C1(N2CCCCC2)CCN(C(=O)c2cccn3c(=O)c4cc(Cl)ccc4nc23)CC1,"inconclusive: 100 µM [inhibitor, single point]",
c1ccc2c(N3CCOCC3)nc(-c3ccoc3)nc2c1,"inconclusive: 35.5 µM [inhibitor, full curve]",
O=C(O)/C=C/C(=O)c1ccc2c(c1)CCc1ccccc1-2,active: 3.55 µM,
COc1ccccc1N(CC(=O)NCCN1CCOCC1)S(=O)(=O)c1ccccc1,,inactive: -9.26%
CCOCCCn1c(=N)c(C(N)=S)cc2c(=O)n3cccc(C)c3nc21,active: 79.4 µM,

# Quoted from the listing:
# Entry for C[N+]1(CC2COC(c3ccccc3)(C3CCCCC3)O2)CCCCC1 (stereo not given) under max response, negative = inhibition: inactive: 0.623%
# Entry for NC(CSC(c1ccccc1)(c1ccccc1)c1cccc2ccccc12)C(=O)O (stereo not given) under Potency: inconclusive: 79.4 µM [inhibitor, single point]

# Additional compounds follow.

SMILES,Potency,"max response, negative = inhibition"
CON(C)C(=O)CC1(CN(Cc2ccccc2)C(=O)OC(C)(C)C)CCCCC1,"inconclusive: 100 µM [inhibitor, single point]",
COc1ccc([N+](=O)[O-])cc1NC(=O)CCS(=O)(=O)c1ccc(Br)cc1,,inactive: 2.11%
CN1CCN(C(=O)c2ccc3c(=O)n(Cc4ccco4)c(=S)[nH]c3c2)CC1,,inactive: 16.3%
O=C(COc1ccccc1)NC1C(=O)N2C(C(=O)O)=C(Cl)CSC12 (stereo not given),"inconclusive: 14.1 µM [inhibitor, partial curve, poor fit]",
Cc1ccc(SCCC(=O)Nc2ccccc2C(=O)N2CCOCC2)cc1,,inactive: -6.72%
Clc1ccc(Oc2ccccc2)c2ncccc12,"inconclusive: 100 µM [inhibitor, single point]",
CCCN(CC(=O)Nc1ccccc1C)C(=O)c1ccc(-c2ccc([N+](=O)[O-])cc2)o1,"inconclusive: 50.1 µM [inhibitor, partial curve, poor fit]",
C/C=C1\COC(C(=O)NCc2ccccn2)(C(F)(F)F)C=C1C=C(C)C (stereo not given),"inconclusive: 100 µM [inhibitor, single point]",
CCOC(=O)c1c(NC(=O)/C=C/C(=O)O)sc(C)c1-c1ccc(Cl)cc1,active: 39.8 µM,
Cc1nc(CSc2nsc(/C=C/N(C)C)c2C#N)cs1,"inconclusive: 89.1 µM [inhibitor, single point]",
COc1ccc(C2c3[nH]c4ccccc4c3C[C@H]3C(=O)N(c4ccccc4C(=O)NCCN4CCOCC4)C(=O)N23)cc1 (stereo not given in full),,inactive: 12%
CC(C)N(CCC(=O)c1ccc2ccccc2c1)Cc1ccccc1,active: 10 µM and active: 5.01 µM,
COc1ccc(C(=O)N2CCC3(CCCN(c4cccc(-c5ccccc5)c4)C3)CC2)cc1,,inactive: -20%
NC(=S)N/N=C/c1ccc(-c2ccc([N+](=O)[O-])cc2)o1,"inconclusive: 89.1 µM [inhibitor, partial curve, poor fit]",
CCn1nc(-c2ccc(C)cc2)nc2c(=O)n(C)c(=O)nc1-2,"inconclusive: 25.1 µM [inhibitor, partial curve, poor fit]",
CCOC(=O)C1=C(C)NC(=S)NC1c1ccco1 (stereo not given),"inconclusive: 44.7 µM [inhibitor, full curve, poor fit]",
COc1cc(/C=C2\SC(=O)NC2=O)ccc1Oc1ccc([N+](=O)[O-])cn1,"inconclusive: 56.2 µM [inhibitor, partial curve, poor fit]",
C=CCN(c1ccccc1)S(=O)(=O)c1cccc(C(=O)Nc2cccc(C)n2)c1,"inconclusive: 79.4 µM [inhibitor, single point]",
O=C(CCN1C(=O)/C(=C/c2ccccc2)SC1=S)NCCc1ccc(O)cc1,"inconclusive: 0.631 µM [inhibitor, full curve, poor fit]",
O=[N+]([O-])c1ccccc1-c1ccc(C(=S)N2CCN(c3ccccc3)CC2)o1,active: 79.4 µM,
O=C(O)CCSc1nnc(CNc2ccc(Cl)cc2)n1Cc1ccccc1,"inconclusive: 70.8 µM [inhibitor, single point]",
